Experimental findings from publication PMC4772114, “Structural basis for the regulation of enzymatic activity of Regnase-1 by domain-domain interactions” (Scientific Reports, 2016) are described below.

No constants are given. Whether binding was seen depends on the method and setting. Some results given as binding are weak or reduced against the parent protein; the word gives no strength.

Experiment [1] concerns the target T1, Regnase-1 PIN domain, catalytically inactive monomeric mutant (DDNN and D278R) (Mus musculus) (UniProt Q5D1E7).
T1 sequence: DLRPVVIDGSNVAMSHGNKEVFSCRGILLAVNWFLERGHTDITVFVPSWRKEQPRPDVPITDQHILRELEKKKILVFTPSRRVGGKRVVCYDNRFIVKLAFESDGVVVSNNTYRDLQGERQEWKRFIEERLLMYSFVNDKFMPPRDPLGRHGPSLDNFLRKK
Description: NMR titration; 1H-15N HSQC of 15N-labeled PIN (DDNN, D278R) at 100 uM with 3 or 6 molar equivalents of unlabeled NTD; 298 K; both purified.

For experiment [2], the target named is Regnase-1 PIN domain P212A (Mus musculus) (UniProt Q5D1E7). The experiment in a line: SEC; gel filtration of the PIN domain and its mutants; elution volume compared with standard marker proteins; concentration dependent, 20-200 uM range; both purified. Background: Size exclusion chromatography separates by hydrodynamic size, large species first.
Experiment [3] addresses Regnase-1 PIN domain R214A (Mus musculus) (UniProt Q5D1E7). The experiment is described as above.
Experiment [4] concerns the target Regnase-1 PIN domain D278R (Mus musculus) (UniProt Q5D1E7). Described as above.

B1: Regnase-1 N-terminal domain (NTD) (domain or fragment, Mus musculus)
chain: TSELQMKVDFFRKLGYSSSEIHSVLQKLGVQADTNTVLGELVKHG
notes: Regnase-1 (Zc3h12a), Mus musculus, N-terminal domain; residues 90-133 are called the connection between the NTD and PIN; Uniformly 15N-labelled or unlabelled in the NMR experiments; not shown: GST, N-terminal, cleaved
Consider B1, for which the binding entry in experiment [1] is given as “binds”.

B2: Regnase-1 PIN domain P212A (domain or fragment, UniProt Q5D1E7 134-295)
chain: DLRPVVIDGSNVAMSHGNKEVFSCRGILLAVNWFLERGHTDITVFVPSWRKEQPRPDVPITDQHILRELEKKKILVFTASRRVGGKRVVCYDDRFIVKLAFESDGVVVSNDTYRDLQGERQEWKRFIEERLLMYSFVNDKFMPPDDPLGRHGPSLDNFLRKK
Consider B2, for which the binding entry in experiment [2] is “no binding”.

B3: Regnase-1 PIN domain R214A (domain or fragment, UniProt Q5D1E7 134-295)
chain: DLRPVVIDGSNVAMSHGNKEVFSCRGILLAVNWFLERGHTDITVFVPSWRKEQPRPDVPITDQHILRELEKKKILVFTPSARVGGKRVVCYDDRFIVKLAFESDGVVVSNDTYRDLQGERQEWKRFIEERLLMYSFVNDKFMPPDDPLGRHGPSLDNFLRKK
With B3, in experiment [3], the binding result is “no binding”.

B4: Regnase-1 PIN domain D278R (domain or fragment, UniProt Q5D1E7 134-295)
chain: DLRPVVIDGSNVAMSHGNKEVFSCRGILLAVNWFLERGHTDITVFVPSWRKEQPRPDVPITDQHILRELEKKKILVFTPSRRVGGKRVVCYDDRFIVKLAFESDGVVVSNDTYRDLQGERQEWKRFIEERLLMYSFVNDKFMPPRDPLGRHGPSLDNFLRKK
As to B4, the binding result in experiment [4] is “no binding”.
